PubChem BioAssay AID1259308 | NCATS | 2017

- Purpose: 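Genes whose loss raises luciferase production in HEK293 cells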 (primary screen)
- Cell system: human HEK293 embryonic kidney cells stably expressing firefly luciferase (HEK-CMV-Luc2-Hygro)
- Reagents: single siRNA against human genes, 0.8 pmol siRNA per well
- Timing: 72 h
- Measured: 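Luciferase light (ONE-Glo) measured on one replicate plate set and viability (CellTiter-Glo) on the other, scaled to a negative control siRNA, with robust z-scores and luciferase per cell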
- Direction: total luciferase, z-score and total luciferase, % of control: higher = more reporter protein produced; luciferase per cell, z-score: higher = more reporter output per viable cell; viable cells, % of control: higher = more viable cells
- Rule for the call: 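Active when the median/MAD z-score for overall luciferase is greater than 3; a gene was taken forward for validation with new siRNAs if at least two of its three siRNAs passed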
- Meaning of the calls: active = raised luciferase; inactive = no rise
The deposit covers about 59,000 reagents; this is a random part of them. Over the whole deposit, about 1,510 (2.6%) were called active. 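Calls use total luciferase alone and ignore viability, so some active siRNAs may act by altering cell number.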 A number with no mark means an inactive call. Reagents against one gene are numbered here.

no.	target gene	reagent	total luciferase, z-score	total luciferase, % of control	luciferase per cell, z-score	viable cells, % of control
1	PDILT (protein disulfide isomerase like, testis expressed)	1	0.539	92.6	0.457	91.7
2	PDILT (protein disulfide isomerase like, testis expressed)	2	-0.41	73.7	-0.389	91.3
3	PDILT (protein disulfide isomerase like, testis expressed)	3	-0.292	76.1	-0.929	109
4	SHF (Src homology 2 domain containing F)	1	-1.03	61.4	-1.25	95.4
5	SHF (Src homology 2 domain containing F)	2	0.66	95	0.51	92.8
6	SHF (Src homology 2 domain containing F)	3	-0.743	67.1	-1.13	101
7	SPOCD1 (SPOC domain containing 1)	1	-0.698	68	-0.706	91.5
8	SPOCD1 (SPOC domain containing 1)	2	1.34	108	1.83	75
9	SPOCD1 (SPOC domain containing 1)	3	-1.32	55.7	-1.7	97.3
10	ZNHIT2 (zinc finger HIT-type containing 2)	1	-0.311	75.7	0.18	80.7
11	ZNHIT2 (zinc finger HIT-type containing 2)	2	0.22	86.3	-0.147	100
12	ZNHIT2 (zinc finger HIT-type containing 2)	3	-0.546	71	-0.0444	80.3
13	FXYD4 (FXYD domain containing ion transport regulator 4)	1	1.5	112	0.694	104
14	FXYD4 (FXYD domain containing ion transport regulator 4)	2	-1.71	47.8	-1.59	81.2
15	FXYD4 (FXYD domain containing ion transport regulator 4)	3	-0.34	75.1	-0.217	88.9
16	TBX22 (T-box transcription factor 22)	1	-2.76	26.9	-3.82	82.3
17	TBX22 (T-box transcription factor 22)	2	0.805	97.9	0.852	87.4
18	TBX22 (T-box transcription factor 22)	3	1.49	112	1.23	90.2
19	RBM6 (RNA binding motif protein 6)	1	-0.47	72.5	-0.907	103
20	RBM6 (RNA binding motif protein 6)	2	1.4	110	0.927	96.1
21	RBM6 (RNA binding motif protein 6)	3	-2	42.1	-1.57	71.2
22	AGAP2 (ArfGAP with GTPase domain, ankyrin repeat and PH domain 2)	1	-0.245	77	-0.242	91.7
23	AGAP2 (ArfGAP with GTPase domain, ankyrin repeat and PH domain 2)	2	0.236	86.6	-0.606	113
24	AGAP2 (ArfGAP with GTPase domain, ankyrin repeat and PH domain 2)	3	1.84	118	1.73	84
25	FHDC1 (FH2 domain containing 1)	1	2.21	126	1.7	90
26	FHDC1 (FH2 domain containing 1)	2	1.35	109	2.63	60.8
27	FHDC1 (FH2 domain containing 1)	3	-0.601	69.9	0.365	71

Sorted by “luciferase per cell, z-score” (low to high): some entries from above
target gene	reagent	total luciferase, z-score	total luciferase, % of control	luciferase per cell, z-score	viable cells, % of control
SHF (Src homology 2 domain containing F)	1	-1.03	61.4	-1.25	95.4
SHF (Src homology 2 domain containing F)	3	-0.743	67.1	-1.13	101
PDILT (protein disulfide isomerase like, testis expressed)	3	-0.292	76.1	-0.929	109
PDILT (protein disulfide isomerase like, testis expressed)	2	-0.41	73.7	-0.389	91.3
PDILT (protein disulfide isomerase like, testis expressed)	1	0.539	92.6	0.457	91.7
SHF (Src homology 2 domain containing F)	2	0.66	95	0.51	92.8

The results go on:
no.	target gene	reagent	total luciferase, z-score	total luciferase, % of control	luciferase per cell, z-score	viable cells, % of control
28	TBC1D21 (TBC1 domain family member 21)	1	0.855	98.9	1.35	77.4
29	TBC1D21 (TBC1 domain family member 21)	2	0.953	101	0.779	91.8
30	TBC1D21 (TBC1 domain family member 21)	3	1.02	102	1.11	85.3
31	RAD23A (RAD23 nucleotide excision repair protein A)	1	-1.26	56.7	-0.267	68
32	RAD23A (RAD23 nucleotide excision repair protein A)	2	-0.84	65.2	-0.624	85.8
33	RAD23A (RAD23 nucleotide excision repair protein A)	3	0.098	83.8	1	71.9
34	GSPT2 (G1 to S phase transition 2)	1	0.299	87.8	-0.201	103
35	GSPT2 (G1 to S phase transition 2)	2	0.151	84.9	0.466	83.9
36	GSPT2 (G1 to S phase transition 2)	3	0.95	101	1.14	83.5
37	IRF8 (interferon regulatory factor 8)	1	0.0292	82.5	-0.193	97
38	IRF8 (interferon regulatory factor 8)	2	0.75	96.8	0.307	99.8
39	IRF8 (interferon regulatory factor 8)	3	0.807	97.9	1.85	67.2
40	CCDC191 (coiled-coil domain containing 191)	1	-0.261	76.7	-0.566	99.5
41	CCDC191 (coiled-coil domain containing 191)	2	0.0502	82.9	-0.329	101
42	CCDC191 (coiled-coil domain containing 191)	3	-0.466	72.6	0.166	77.7
43	WFDC2 (WAP four-disulfide core domain 2)	1	6.37 (active)	209	4.65	68.6
44	WFDC2 (WAP four-disulfide core domain 2)	2	-0.0602	80.7	-0.146	93.7
45	WFDC2 (WAP four-disulfide core domain 2)	3	-0.77	66.6	-0.303	80.6
46	NUP93 (nucleoporin 93)	1	-2	42.1	-1.96	78.7
47	NUP93 (nucleoporin 93)	2	-0.807	65.8	-0.231	78.2
48	NUP93 (nucleoporin 93)	3	-1.4	54	-0.332	65.9
49	AHNAK (AHNAK nucleoprotein)	1	0.0757	83.4	0.751	76.5
50	AHNAK (AHNAK nucleoprotein)	2	-1.28	56.5	-1.37	90.6
51	AHNAK (AHNAK nucleoprotein)	3	1.07	103	1.02	88.3
52	TCEA3 (transcription elongation factor A3)	1	-2.33	35.5	-2.52	77.2
53	TCEA3 (transcription elongation factor A3)	2	-0.622	69.5	-0.356	85.3
54	TCEA3 (transcription elongation factor A3)	3	0.431	90.5	0.00424	101
55	RHOXF2 (Rhox homeobox family member 2)	1	1.59	114	1.53	84.8
56	RHOXF2 (Rhox homeobox family member 2)	2	-0.713	67.7	0.794	61.4
57	RHOXF2 (Rhox homeobox family member 2)	3	1.22	106	0.677	99.2
